Record: PubChem BioAssay AID1224828 (NIAID, 2016)

Purpose: 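Regulators linking TLR4 signalling to p65 nuclear translocation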 (primary screen)
System: mouse RAW264.7 G9 macrophage reporter cells (GFP-p65, Tnf promoter-mCherry)
Reagent: siRNA pool against mouse genes, 100 nM
Duration: 2 days siRNA transfection, then 40 min LPS before fixation
Challenge: LPS (Salmonella minnesota R595) at 10 ng/ml
Measurement: 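Imaged p65 nuclear translocation ratio, normalised to the plate median, converted to robust z-scores and averaged across two replicates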
Scale: p65 translocation robust z-score: higher = more nuclear NF-kappaB p65 after LPS than the plate median; nuclear/cytoplasmic p65 ratio: higher = more nuclear NF-kappaB p65
Rule for the call: 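Active if robust z is above 3.3 (negative regulators) or below -1.56, the Tlr4 control median (positive regulators); activity score 50 or more; control wells not called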
Meaning of the calls: active = hit (p65 shift raised or lowered); inactive = no clear change
Shown is an unselected part of about 17,000 reagents tested. Of all reagents, 762 (4.5%) got an active call. 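Active calls include both raised and lowered p65 entry, mostly lowered; wells with fewer than 50 cells lack a z-score.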 Raw values are not corrected between plates. No sequences are given here.

Gene,p65 translocation robust z-score,"nuclear/cytoplasmic p65 ratio, rep 1","nuclear/cytoplasmic p65 ratio, rep 2",low cell count flag,activity call
Tmem127 (transmembrane protein 127),,1.44,1.36,fewer than 50 cells per well; well left out of scoring,inactive
"Calca (calcitonin/calcitonin-related polypeptide, alpha)",0.42,1.38,1.65,enough cells to score,inactive
Prss1 (serine protease 1 (trypsin 1)),-0.15,1.53,1.45,enough cells to score,inactive
Etd (embryonic testis differentiation),-1.28,1.39,1.34,enough cells to score,inactive
Ppic (peptidylprolyl isomerase C),0.66,1.4,1.29,enough cells to score,inactive
Tjp3 (tight junction protein 3),,1.42,1.35,fewer than 50 cells per well; well left out of scoring,inactive
"Bckdhb (branched chain ketoacid dehydrogenase E1, beta polypeptide)",0.15,1.59,1.69,enough cells to score,inactive
"Ppp1r9b (protein phosphatase 1, regulatory subunit 9B)",0.79,1.64,1.48,enough cells to score,inactive
Ranbp10 (RAN binding protein 10),2.76,1.53,1.65,enough cells to score,inactive
Slc35b1,-0.17,1.37,1.1,enough cells to score,inactive
H13 (histocompatibility 13),-0.03,1.61,1.57,enough cells to score,inactive
LTO1 (ABCE maturation factor),1.13,1.64,1.33,enough cells to score,inactive
"Ckm (creatine kinase, muscle)",-1.33,1.4,1.28,enough cells to score,inactive
Scpep1 (serine carboxypeptidase 1),,1.65,1.35,fewer than 50 cells per well; well left out of scoring,inactive
Rpl36a (ribosomal protein L36A),-0.96,1.26,1.14,enough cells to score,inactive
Fen1 (flap structure specific endonuclease 1),-0.76,1.41,1.23,enough cells to score,inactive
"Lalba (lactalbumin, alpha)",,1.52,1.42,fewer than 50 cells per well; well left out of scoring,inactive
"Blm (Bloom syndrome, RecQ like helicase)",-0.04,1.65,1.57,enough cells to score,inactive
Pcgf1 (polycomb group ring finger 1),0.41,1.49,1.48,enough cells to score,inactive
Adprhl1 (ADP-ribosylhydrolase like 1),-0.3,1.6,1.55,enough cells to score,inactive
Chst15 (carbohydrate sulfotransferase 15),,1.17,1.3,fewer than 50 cells per well; well left out of scoring,inactive
"Sf3a1 (splicing factor 3a, subunit 1)",-2.54,1.16,1.21,enough cells to score,active
BC005537 (cDNA sequence BC005537),-0.57,1.34,1.75,enough cells to score,inactive
"Pim2 (Pim2, proto-oncogene, serine/threonine kinase)",-0.2,1.64,1.37,enough cells to score,inactive
Or11h6 (olfactory receptor family 11 subfamily H member 6),-0.98,1.31,1.14,enough cells to score,inactive
Gsx1 (GS homeobox 1),-1.38,1.44,1.34,enough cells to score,inactive
Stard10 (StAR related lipid transfer domain containing 10),0.97,1.58,1.31,enough cells to score,inactive
Pgls (6-phosphogluconolactonase),-1.31,1.16,1.09,enough cells to score,inactive
Mdga1 (MAM domain containing glycosylphosphatidylinositol anchor 1),-0.07,1.6,1.6,enough cells to score,inactive
Kdm5a (lysine demethylase 5A),-0.65,1.39,1.29,enough cells to score,inactive
Rbm48 (RNA binding motif protein 48),,1.21,1.4,fewer than 50 cells per well; well left out of scoring,inactive
"Rarb (retinoic acid receptor, beta)",0.74,1.55,1.69,enough cells to score,inactive
Rnf44 (ring finger protein 44),-1.36,1.22,1.08,enough cells to score,inactive
Slc35b4,0.04,1.4,1.52,enough cells to score,inactive
Dram1 (DNA-damage regulated autophagy modulator 1),-0.19,1.44,1.39,enough cells to score,inactive
"Idh2 (isocitrate dehydrogenase 2 (NADP+), mitochondrial)",-1.33,1.39,1.22,enough cells to score,inactive
Atp8a2,0.03,1.7,1.54,enough cells to score,inactive
"Spata31d1d (spermatogenesis associated 31 subfamily D, member 1D)",,1.11,1.25,fewer than 50 cells per well; well left out of scoring,inactive
Ier3 (immediate early response 3),-1.44,1.22,1.21,enough cells to score,inactive
Cebpb (CCAAT/enhancer binding protein beta),-1.86,1.42,1.14,enough cells to score,active
Trappc2b (trafficking protein particle complex 2B),,1.27,1.19,fewer than 50 cells per well; well left out of scoring,inactive
Vmn1r65 (vomeronasal 1 receptor 65),0.48,1.43,1.3,enough cells to score,inactive
"Prl8a6 (prolactin family 8, subfamily a, member 6)",0.13,1.43,1.2,enough cells to score,inactive
Socs5 (suppressor of cytokine signaling 5),0.95,1.71,1.6,enough cells to score,inactive
Trmt1 (tRNA methyltransferase 1),-1.36,1.37,1.35,enough cells to score,inactive
"Irx3os (iroquois homeobox 3, opposite strand)",-0.22,1.59,1.47,enough cells to score,inactive
Vgll1 (vestigial like family member 1),1.31,1.45,1.37,enough cells to score,inactive

Looked up above:
Gsx1 (GS homeobox 1), nuclear/cytoplasmic p65 ratio, rep 1 → 1.44
Calca (calcitonin/calcitonin-related polypeptide, alpha), p65 translocation robust z-score → 0.42
Under “low cell count flag”, Socs5 (suppressor of cytokine signaling 5) shows enough cells to score
Under “p65 translocation robust z-score”, Cebpb (CCAAT/enhancer binding protein beta) is entered as -1.86
Result for Trmt1 (tRNA methyltransferase 1) in “activity call”: inactive
For “p65 translocation robust z-score”, Irx3os (iroquois homeobox 3, opposite strand) shows -0.22

The list goes on:
Gene,p65 translocation robust z-score,"nuclear/cytoplasmic p65 ratio, rep 1","nuclear/cytoplasmic p65 ratio, rep 2",low cell count flag,activity call
Zc3h15 (zinc finger CCCH-type containing 15),-0.73,1.33,1.36,enough cells to score,inactive
Nox4 (NADPH oxidase 4),0.08,1.88,1.41,enough cells to score,inactive
Ifna6 (interferon alpha 6),-0.99,1.33,1.26,enough cells to score,inactive
Snrnp27 (small nuclear ribonucleoprotein 27 (U4/U6.U5)),0.12,1.41,1.48,enough cells to score,inactive
Utp20 (UTP20 small subunit processome component),-0.84,1.43,1.54,enough cells to score,inactive
Sgk1 (serum/glucocorticoid regulated kinase 1),0.45,1.96,1.43,enough cells to score,inactive
Spag4 (sperm associated antigen 4),-0.67,1.31,1.15,enough cells to score,inactive
Lyset (lysosomal enzyme trafficking factor),-1.7,1.28,1.35,enough cells to score,active
Asz1,,1.58,1.48,fewer than 50 cells per well; well left out of scoring,inactive
Ski (ski proto-oncogene),-0.68,1.42,1.49,enough cells to score,inactive
Tent5b (terminal nucleotidyltransferase 5B),,0.779,1.27,fewer than 50 cells per well; well left out of scoring,inactive
Rubcnl,,1.36,1.24,fewer than 50 cells per well; well left out of scoring,inactive
Rhoq (ras homolog family member Q),-0.42,1.64,1.28,enough cells to score,inactive
Dnajc22 (DnaJ heat shock protein family (Hsp40) member C22),-1.35,1.12,1.03,enough cells to score,inactive
Krt18 (keratin 18),-1.16,1.3,1.25,enough cells to score,inactive
"Crybb3 (crystallin, beta B3)",0.72,1.68,1.38,enough cells to score,inactive
Vmn1r9 (vomeronasal 1 receptor 9),-1.18,1.19,1.13,enough cells to score,inactive
Or5an6 (olfactory receptor family 5 subfamily AN member 6),2.42,2.03,1.69,enough cells to score,inactive
Mvp (major vault protein),-0.37,1.69,1.56,enough cells to score,inactive
Xab2 (XPA binding protein 2),,1.19,1.29,fewer than 50 cells per well; well left out of scoring,inactive
Hmcn2 (hemicentin 2),-0.47,1.42,1.86,enough cells to score,inactive
Cd200r3 (CD200 receptor 3),1.6,1.5,1.42,enough cells to score,inactive
"Cacnb4 (calcium channel, voltage-dependent, beta 4 subunit)",1.42,1.73,1.92,enough cells to score,inactive
"Itih3 (inter-alpha trypsin inhibitor, heavy chain 3)",-0.78,1.4,1.36,enough cells to score,inactive
"Celsr2 (cadherin, EGF LAG seven-pass G-type receptor 2)",-1.3,1.38,1.34,enough cells to score,inactive
Mfap3 (microfibrillar-associated protein 3),-0.94,1.37,1.24,enough cells to score,inactive
Defb20 (defensin beta 20),0.39,1.52,1.56,enough cells to score,inactive
Ch25h (cholesterol 25-hydroxylase),-1.5,1.36,1.55,enough cells to score,inactive
